Assay results: PubChem BioAssay AID2685 (National Center for Advancing Translational Sciences (NCATS), 2010)
The other results are listed elsewhere or left out. Further columns of the screen follow, without active or inactive calls. Most of these compounds were active or inconclusive in the main read-out, so they are no random draw. Words in brackets tell the shape of the fitted curve; partial curves, single points and poor fits give uncertain potencies.

Test: qHTS Assay for Lipid Storage Modulators in Drosophila S3 Cells;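 for cell number change: cells counted by Cell Tracker Red CMTPX staining in the red channel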
Details: BODIPY lipid droplet fluorescence, 18-24 h; for cell number change: measured here: cell count max response, cells fed with added oleic acid
Method in brief: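 Drosophila S3 cells got compounds at several concentrations plus oleic acid (400 uM solution). Laser-scanning cytometry with 488 nm excitation read lipid droplets at 500-530 nm and cells at 575-640 nm. Percent activity was relative to 20 uM Triacsin C.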

[1] = measured here: lipid fluorescence (Fed channel) AC50, cells fed with added oleic acid
[2] = measured here: cell number channel AC50, cells fed with added oleic acid

SMILES | cell number change [%] | AC50 [1] | AC50 [2]
Cc1ccc(C)n1-c1ccc(N2CCOCC2)nc1 | -3.37 |  | 
CCN1CCN(C2CCCCC2NS(=O)(=O)c2ccc(Cl)cc2)CC1 (stereo unspecified) | 11.3 | 4.11 µM [rising, full curve] | 
CCOC(=O)c1cc(C(C)C)sc1NC(=O)COC(=O)c1nccnc1N | -7.13 | 29.1 µM [falling, single point] | 
NS(=O)(=O)c1cccc(NC(=O)COC(=O)CCCc2c[nH]c3ccccc23)c1 |  | 6.51 µM [falling, single point] | 
COc1ccc(C(=O)NNC2CC(=O)N(Cc3ccccc3)C2=O)cc1OC (stereo unspecified) | 8.56 | 0.291 µM [rising, full curve, poor fit] | 
Cc1cccn2c(=O)c3cc(C(=O)NCCCn4ccnc4)n(C)c3nc12 | 7.81 | 0.82 µM [rising, full curve, poor fit] | 
O=C(Nc1cccc(Br)c1)c1ccc(OC2CSC2)cc1 | 10.4 |  | 
Cc1ccc(/C=N/n2c(COc3ccccc3)n[nH]c2=S)o1 | -40.8 | 4.11 µM [falling, full curve, poor fit] | 3.66 µM [falling, full curve, poor fit]
Cc1ccc(-c2cc3cccc[n+]3cc2-c2ccc(C)cc2)cc1 | -78 | 18.4 µM [falling, single point] | 16.4 µM [falling, single point]
COc1ccccc1N(C)C(=O)c1cc(S(=O)(=O)N2CCc3ccccc32)cn1C | -11 | 14.6 µM [falling, partial curve] | 
Cc1ccnc(SCCn2c(N3CCN(Cc4ccccc4)CC3)nc3c2c(=O)[nH]c(=O)n3C)n1 | 10.7 |  | 
O=C(O)c1ccc(Cn2cc(/C=C\[N+](=O)[O-])c3ccccc32)o1 | -13.2 |  | 
COc1ccc(-c2[nH]ncc2CN2CCCC(C(=O)c3cccc(OC)c3)C2)cc1 (stereo unspecified) | 23.2 |  | 
CCOc1ccccc1NC(=O)C1CCN(S(=O)(=O)c2cccc3cccnc23)CC1 | -33.9 | 6.51 µM [falling, single point] | 6.51 µM [falling, single point]
Cc1sc2nc(-c3cccnc3)[nH]c(=O)c2c1-c1ccccc1 | -25.3 | 29.1 µM [rising, single point] | 
CCCc1ccc(OCc2nc(-c3ccc(NC(=O)c4ccco4)cc3)no2)cc1 | -38 |  | 0.0259 µM [falling, partial curve]
Cn1/c(=N/N=C/c2ccccn2)sc2ccccc21 |  | 3.26 µM [rising, partial curve] | 
Cc1ccc(C(CCNC(C)c2cccs2)c2ccco2)cc1 (stereo unspecified) | -38.7 | 18.4 µM [falling, single point] | 29.1 µM [falling, single point]
O=C(Nc1ccc(O)c2c(=O)cc(-c3ccccc3Cl)oc12)c1ccccc1Cl | 11.8 | 5.17 µM [rising, partial curve] | 
Cc1ccc(-n2[nH]c(C)c(/C=N/c3cccc(C)n3)c2=O)cc1 | 20.7 | 32.6 µM [rising, partial curve, poor fit] | 

SMILES | cell number change [%] | AC50 [1] | AC50 [2]
N#CCCn1cc(C(=O)CN2C(=O)C(=O)N(C3CCCC3)C2=O)c2ccccc21 | 1.2 |  | 
O=C(CN1CCOCC1)Nc1ccc([N+](=O)[O-])cc1 | 2.07 |  | 
COc1cc(C(C(=O)NC2CCCCC2)N(C(=O)c2cnccn2)c2ccccc2)cc(OC)c1OC (stereo unspecified) | 8.06 | 0.731 µM [rising, full curve, poor fit] | 
CCOC(=O)CCC(=O)N1CCOCCOCCN(C(=O)CCC(=O)OCC)CCOCC1 | -100 | 0.0731 µM [falling, full curve] | 23.1 µM [falling, partial curve]
O=C(COC(=O)C1(c2ccc(F)cc2)CCCC1)NCc1ccc2c(c1)OCO2 | -6.04 | 29.1 µM [falling, single point] | 
COc1cc(NC(=O)C/C(C)=N/NC(=O)Cc2ccc(Cl)cc2)c(OC)cc1Cl | 24.8 | 1.84 µM [rising, partial curve] | 
COc1ccccc1NC(=S)N(C(C)C)C(C)c1ccccn1 (stereo unspecified) | -0.881 | 0.13 µM [rising, full curve, poor fit] | 0.13 µM [rising, full curve, poor fit]
O=C(N[C@@H](Cc1ccccc1)C(=O)Nc1ccc(F)cc1)C1CCNCC1 | -18.1 | 0.146 µM [falling, full curve] | 
COc1ccc(-c2cccc(C(=O)Nc3cccc(C(=O)O)c3)c2)cc1 | 23.3 |  | 
O=C(CSCc1ccccc1)N1CCN(c2ccccc2)CC1 | 12 | 20.6 µM [rising, single point] | 
CCCCCN1N=C(C)CC1=O | 6.49 |  | 
CCCCN(C1CCS(=O)(=O)C1)S(=O)(=O)c1cc(C)ccc1C (stereo unspecified) | -10.8 | 29.1 µM [falling, single point] | 
O=C(Oc1ccc(C(=S)N2CCOCC2)cc1)c1cccc(Cl)c1 | -2.2 | 29.1 µM [rising, single point] | 
Cc1ccccc1-c1n[nH]c(=S)o1 | 9.76 | 29.1 µM [rising, single point] | 
COc1ccc(NC(=O)CSC2=NN3CCCC(=O)N=C3S2)c(OC)c1 | 21.4 | 29.1 µM [rising, partial curve] | 
COc1ccc(C(=O)N(CCCO)C(C)C(=O)NC2CCCCC2)cc1OC (stereo unspecified) | -11.8 | 20.6 µM [falling, single point] | 
CCOc1ccc2nc(Cl)sc2c1 | -6.15 | 0.00411 µM [falling, full curve, poor fit] | 
O=C(O)CCn1c(SCc2ccccc2)nc2ccccc21 | 50.8 |  | 29.1 µM [rising, single point]
CC(C)NC(=O)CSc1nnc(-c2ccco2)n1N | 2.56 | 20.6 µM [falling, single point] | 
CCCCC(O)(c1ccc(F)cc1)C(CN1CCOCC1)c1ccc(Cl)cc1 (stereo unspecified) | 36.9 | 11.6 µM [rising, single point] | 3.66 µM [rising, partial curve, poor fit]

Copied from the results shown, 11 compounds:
SMILES | cell number change [%] | AC50 [1] | AC50 [2]
O=C(Nc1cccc(Br)c1)c1ccc(OC2CSC2)cc1 | 10.4 |  | 
Cc1ccc(/C=N/n2c(COc3ccccc3)n[nH]c2=S)o1 | -40.8 | 4.11 µM [falling, full curve, poor fit] | 3.66 µM [falling, full curve, poor fit]
Cc1ccc(-c2cc3cccc[n+]3cc2-c2ccc(C)cc2)cc1 | -78 | 18.4 µM [falling, single point] | 16.4 µM [falling, single point]
COc1ccccc1N(C)C(=O)c1cc(S(=O)(=O)N2CCc3ccccc32)cn1C | -11 | 14.6 µM [falling, partial curve] | 
Cc1ccnc(SCCn2c(N3CCN(Cc4ccccc4)CC3)nc3c2c(=O)[nH]c(=O)n3C)n1 | 10.7 |  | 
O=C(O)c1ccc(Cn2cc(/C=C\[N+](=O)[O-])c3ccccc32)o1 | -13.2 |  | 
COc1ccc(-c2[nH]ncc2CN2CCCC(C(=O)c3cccc(OC)c3)C2)cc1 (stereo unspecified) | 23.2 |  | 
CCOc1ccccc1NC(=O)C1CCN(S(=O)(=O)c2cccc3cccnc23)CC1 | -33.9 | 6.51 µM [falling, single point] | 6.51 µM [falling, single point]
Cc1sc2nc(-c3cccnc3)[nH]c(=O)c2c1-c1ccccc1 | -25.3 | 29.1 µM [rising, single point] | 
CCCc1ccc(OCc2nc(-c3ccc(NC(=O)c4ccco4)cc3)no2)cc1 | -38 |  | 0.0259 µM [falling, partial curve]
Cn1/c(=N/N=C/c2ccccn2)sc2ccccc21 |  | 3.26 µM [rising, partial curve] | 
